Results taken from patent publication US20240228658A1.
No constants are given. Whether binding was seen depends on the method and setting. Some results given as binding are weak or reduced against the parent protein; the word gives no strength.

Chains of the proteins cited; added tags and fusions are not shown. Residues count along the entry.
UniProt Q4R8Y9, residues 35-420: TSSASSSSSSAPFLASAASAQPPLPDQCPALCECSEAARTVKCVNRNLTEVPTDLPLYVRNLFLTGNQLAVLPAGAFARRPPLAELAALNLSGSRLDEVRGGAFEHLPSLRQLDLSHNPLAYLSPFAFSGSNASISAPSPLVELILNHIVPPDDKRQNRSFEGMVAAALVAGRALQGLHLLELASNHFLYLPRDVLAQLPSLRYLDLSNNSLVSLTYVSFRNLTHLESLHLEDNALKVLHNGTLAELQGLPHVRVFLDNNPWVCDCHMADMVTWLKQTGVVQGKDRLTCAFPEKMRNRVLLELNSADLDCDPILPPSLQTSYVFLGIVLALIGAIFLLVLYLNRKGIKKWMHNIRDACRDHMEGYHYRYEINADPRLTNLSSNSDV

T1: human 5T4 on cells (human) (UniProt Q13641)
T1 sequence (looked up): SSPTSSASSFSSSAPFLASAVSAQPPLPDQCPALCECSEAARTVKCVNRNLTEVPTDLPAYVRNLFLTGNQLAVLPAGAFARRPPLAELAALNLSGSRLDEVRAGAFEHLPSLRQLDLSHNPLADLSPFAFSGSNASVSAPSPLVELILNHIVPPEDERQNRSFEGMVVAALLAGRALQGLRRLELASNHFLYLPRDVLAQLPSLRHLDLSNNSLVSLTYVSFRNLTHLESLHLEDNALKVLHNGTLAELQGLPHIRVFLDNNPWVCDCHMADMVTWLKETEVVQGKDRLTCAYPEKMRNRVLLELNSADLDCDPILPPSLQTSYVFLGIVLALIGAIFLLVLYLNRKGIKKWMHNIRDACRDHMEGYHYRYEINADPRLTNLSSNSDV


Columns and labels:
[1] = biological target: T1, human 5T4 on cells (human); experiment: FACS, CHO cells over expressing human 5T4
[2] = biological target: cyno 5T4 on CHO cells (cyno) (UniProt Q4R8Y9); experiment: FACS, CHO cells over expressing cyno 5T4
[3] = biological target: T1, human 5T4 on cells (human); experiment: FACS, MCF-7 cells
[4] = biological target: recombinant human 5T4 ECD protein fused to human Fc (human) (UniProt Q13641); experiment: ELISA, coated 5T4 antigen

| binding [1] | binding [2] | binding [3] | binding [4] | Binder |
| --- | --- | --- | --- | --- |
| binds | binds | binds | binds | mAb005 (antibody, V domains shown) VH: EVQLVESGGGLVQPKGSLQLSCAASGFTFNTYAMHWVRQAPGKGLEWVARIRSKSSNYATYYADSVKDRFTISRDDSQSMLYLQMNNLKTEDTAMYYCVRDGDYYYGSRPSYWYFDVWGTGTTVTVSS VL: DILLTQSPAILSVSPGERVSFSCRASQSIGTNIHWYQQRTNGSPRLLIKYASESISGIPSRFSGSGSGTDFTLSINNVESEDIADYYCQQTNTWPLTFGAGTKLDLK |
| binds | binds | binds | – | mAb003 (antibody, V domains shown) VH: QVQLQQSGAELMKPGASVKLSCKATGYTFTGYWIEWVKQRPGHGLEWIGEILPGRDSTNSNEKFKGKATFTADTSSNTVYMQLSSLTTEDSAIFYCARGYRDFDYWGQGTTLTVSS VL: DIVMTQSQKFMSTTVGDRVSIICKASQNVGTAVAWYQQKPGQSPKVLIYSASNRYTGVPDRFTGSGSGTDFTLTISNMQSEDLADYFCQQYSSYPRTFGGGTKLEIK |
